For at least one entry, the source does not settle the construct or the ends of the probe.

Chains of the proteins cited; added tags and fusions are not shown. Chains listed by the source or under a name are the forms on record and can include a tag or linker.
VEGF (vascular endothelial growth factor) (Homo sapiens), one chain, as listed by the source: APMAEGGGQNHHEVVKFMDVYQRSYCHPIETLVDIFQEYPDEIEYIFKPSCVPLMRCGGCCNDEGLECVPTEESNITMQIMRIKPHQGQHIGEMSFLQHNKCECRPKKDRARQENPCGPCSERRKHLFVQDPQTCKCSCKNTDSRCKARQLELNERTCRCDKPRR

The data set concerns VEGF (vascular endothelial growth factor) (Homo sapiens). The data set can be described thus: binding assay. To be noted: 2'-NH2 pyrimidines; CITED Jellinek et al. 1994 Biochemistry 33:10450; SELEX-derived VEGF oligonucleotide, identity with SEQ 1 not explicit; purified recombinant protein; protein details: R&D Systems recombinant human VEGF; label: 3'-biotin.

For ACCCUGAUGGUAGACGCCGGG [VEGF-NeXamer], the Kd stood at 10 nM.

(Values after patent US5789163.)
